Consider one substance from PMC12902025.

The assay deals with T1, HSPA13 (UniProt P48723).
T1 sequence: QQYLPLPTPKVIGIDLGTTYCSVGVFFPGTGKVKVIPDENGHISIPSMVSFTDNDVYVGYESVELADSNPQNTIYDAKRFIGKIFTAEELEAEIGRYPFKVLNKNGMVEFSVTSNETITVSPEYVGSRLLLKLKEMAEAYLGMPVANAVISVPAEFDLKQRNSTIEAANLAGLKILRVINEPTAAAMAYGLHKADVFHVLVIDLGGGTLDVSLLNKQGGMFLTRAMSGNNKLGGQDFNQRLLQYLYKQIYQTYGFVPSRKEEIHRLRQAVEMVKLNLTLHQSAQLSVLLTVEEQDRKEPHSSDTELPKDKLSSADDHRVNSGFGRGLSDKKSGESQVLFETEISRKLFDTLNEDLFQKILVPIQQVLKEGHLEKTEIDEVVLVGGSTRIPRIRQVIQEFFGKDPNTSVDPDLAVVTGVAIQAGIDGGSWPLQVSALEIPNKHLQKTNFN
Description: co-IP; HSPA13 immunoprecipitation on isolated supermere fractions (intact particles); depletion of the other proteins from the supermere fraction relative to isotype control.

No constants are given. Whether binding was seen depends on the method and setting. In cells and extracts the contact can be indirect. A result given as binding can be weak or reduced; the word gives no strength.

As to DDR1, the binding entry is given as “binds”.
